Data taken from publication PMC3374827.
Results are given in words; binding and its absence hold for the method and conditions named. Tags and fused reporters may be left off the sequences shown.

Target: Dormancy associated translation inhibitor (DATIN), protein encoded by Rv0079 of Mycobacterium tuberculosis, His-tagged recombinant (Mycobacterium tuberculosis) (UniProt P9WMA9)
Assay: SEC; both purified

B1: Dormancy associated translation inhibitor (DATIN), protein encoded by Rv0079 of Mycobacterium tuberculosis, His-tagged recombinant (protein, UniProt P9WMA9 1-273)
chain: MEPKRSRLVVCAPEPSHAREFPDVAVFSGGRANASQAERLARAVGRVLADRGVTGGARVRLTMANCADGPTLVQINLQVGDTPLRAQAATAGIDDLRPALIRLDRQIVRASAQWCPRPWPDRPRRRLTTPAEALVTRRKPVVLRRATPLQAIAAMDAMDYDVHLFTDAETGEDAVVYRAGPSGLRLARQHHVFPPGWSRCRAPAGPPVPLIVNSRPTPVLTEAAAVDRAREHGLPFLFFTDQATGRGQLLYSRYDGNLGLITPTGDGVADGLA
**Q.** Which binding does the source give for B1 here?
**A.** no binding
